Measurements reported in the supplement of paper PMC10849652.
This is one part of the list.

Chains of the proteins cited; added tags and fusions are not shown. Lines headed by an entry give the natural chain unless they say otherwise; changes in a name come on top.
UniProt Q9BWK5: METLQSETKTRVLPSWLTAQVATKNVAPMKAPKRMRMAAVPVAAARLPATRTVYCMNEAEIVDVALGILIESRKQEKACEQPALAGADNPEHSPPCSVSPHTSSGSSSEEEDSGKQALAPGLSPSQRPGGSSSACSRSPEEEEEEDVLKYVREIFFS
UniProt Q9BTE7: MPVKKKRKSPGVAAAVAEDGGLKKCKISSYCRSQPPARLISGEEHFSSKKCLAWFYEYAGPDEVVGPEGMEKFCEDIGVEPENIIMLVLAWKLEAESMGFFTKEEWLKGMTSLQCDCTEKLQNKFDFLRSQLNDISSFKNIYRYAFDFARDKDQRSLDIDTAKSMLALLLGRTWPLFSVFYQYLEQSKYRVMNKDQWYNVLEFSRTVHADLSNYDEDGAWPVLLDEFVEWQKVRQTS
UniProt Q6ZWL3: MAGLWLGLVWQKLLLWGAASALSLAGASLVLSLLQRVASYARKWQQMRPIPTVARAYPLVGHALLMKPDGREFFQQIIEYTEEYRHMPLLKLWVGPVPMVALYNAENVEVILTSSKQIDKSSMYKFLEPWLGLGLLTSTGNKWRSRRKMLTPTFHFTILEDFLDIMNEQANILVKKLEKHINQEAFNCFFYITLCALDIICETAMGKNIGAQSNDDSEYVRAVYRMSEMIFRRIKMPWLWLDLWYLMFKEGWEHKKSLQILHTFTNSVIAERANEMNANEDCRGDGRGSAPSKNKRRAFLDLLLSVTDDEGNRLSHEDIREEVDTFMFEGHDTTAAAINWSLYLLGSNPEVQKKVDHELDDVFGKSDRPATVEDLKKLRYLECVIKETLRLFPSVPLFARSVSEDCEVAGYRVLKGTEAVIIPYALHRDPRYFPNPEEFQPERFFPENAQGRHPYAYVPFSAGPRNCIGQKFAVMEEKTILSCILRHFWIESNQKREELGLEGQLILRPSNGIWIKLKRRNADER
UniProt Q96DE9: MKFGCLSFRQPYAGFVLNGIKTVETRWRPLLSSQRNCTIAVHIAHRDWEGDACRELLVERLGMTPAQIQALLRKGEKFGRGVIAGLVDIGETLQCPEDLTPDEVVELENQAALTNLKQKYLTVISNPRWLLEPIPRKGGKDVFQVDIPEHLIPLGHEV
UniProt O95476: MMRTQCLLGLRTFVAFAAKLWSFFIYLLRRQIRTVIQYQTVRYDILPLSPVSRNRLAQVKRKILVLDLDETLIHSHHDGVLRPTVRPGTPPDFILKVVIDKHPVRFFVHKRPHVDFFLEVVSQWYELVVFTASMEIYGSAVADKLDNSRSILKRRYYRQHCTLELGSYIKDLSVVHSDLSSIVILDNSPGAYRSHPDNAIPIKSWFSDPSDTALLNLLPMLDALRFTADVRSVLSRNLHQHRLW
UniProt Q9NSA3: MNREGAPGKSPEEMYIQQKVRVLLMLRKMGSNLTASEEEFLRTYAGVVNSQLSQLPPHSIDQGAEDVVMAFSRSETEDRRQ
UniProt P25774, whole entry, looked up: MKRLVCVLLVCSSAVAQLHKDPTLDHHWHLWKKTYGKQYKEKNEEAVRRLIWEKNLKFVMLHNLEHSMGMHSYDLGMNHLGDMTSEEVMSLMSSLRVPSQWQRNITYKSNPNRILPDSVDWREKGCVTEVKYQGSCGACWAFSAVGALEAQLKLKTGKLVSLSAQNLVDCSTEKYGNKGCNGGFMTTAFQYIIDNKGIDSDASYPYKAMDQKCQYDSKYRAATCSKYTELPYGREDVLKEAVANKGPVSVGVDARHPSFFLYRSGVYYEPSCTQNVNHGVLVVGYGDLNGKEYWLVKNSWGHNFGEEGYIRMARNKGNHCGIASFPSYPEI
UniProt Q05D32: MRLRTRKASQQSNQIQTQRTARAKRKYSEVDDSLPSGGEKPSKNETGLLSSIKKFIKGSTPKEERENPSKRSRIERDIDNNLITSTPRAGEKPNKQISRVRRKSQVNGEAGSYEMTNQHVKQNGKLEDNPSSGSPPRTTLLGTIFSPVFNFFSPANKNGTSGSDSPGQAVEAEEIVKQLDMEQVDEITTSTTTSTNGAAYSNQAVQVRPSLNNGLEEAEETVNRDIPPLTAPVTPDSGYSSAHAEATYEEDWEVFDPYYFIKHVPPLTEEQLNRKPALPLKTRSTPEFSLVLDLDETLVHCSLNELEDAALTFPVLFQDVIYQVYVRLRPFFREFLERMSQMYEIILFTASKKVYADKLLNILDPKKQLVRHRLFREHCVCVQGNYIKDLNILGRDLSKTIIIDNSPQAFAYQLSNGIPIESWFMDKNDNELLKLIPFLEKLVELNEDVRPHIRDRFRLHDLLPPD
UniProt Q14999: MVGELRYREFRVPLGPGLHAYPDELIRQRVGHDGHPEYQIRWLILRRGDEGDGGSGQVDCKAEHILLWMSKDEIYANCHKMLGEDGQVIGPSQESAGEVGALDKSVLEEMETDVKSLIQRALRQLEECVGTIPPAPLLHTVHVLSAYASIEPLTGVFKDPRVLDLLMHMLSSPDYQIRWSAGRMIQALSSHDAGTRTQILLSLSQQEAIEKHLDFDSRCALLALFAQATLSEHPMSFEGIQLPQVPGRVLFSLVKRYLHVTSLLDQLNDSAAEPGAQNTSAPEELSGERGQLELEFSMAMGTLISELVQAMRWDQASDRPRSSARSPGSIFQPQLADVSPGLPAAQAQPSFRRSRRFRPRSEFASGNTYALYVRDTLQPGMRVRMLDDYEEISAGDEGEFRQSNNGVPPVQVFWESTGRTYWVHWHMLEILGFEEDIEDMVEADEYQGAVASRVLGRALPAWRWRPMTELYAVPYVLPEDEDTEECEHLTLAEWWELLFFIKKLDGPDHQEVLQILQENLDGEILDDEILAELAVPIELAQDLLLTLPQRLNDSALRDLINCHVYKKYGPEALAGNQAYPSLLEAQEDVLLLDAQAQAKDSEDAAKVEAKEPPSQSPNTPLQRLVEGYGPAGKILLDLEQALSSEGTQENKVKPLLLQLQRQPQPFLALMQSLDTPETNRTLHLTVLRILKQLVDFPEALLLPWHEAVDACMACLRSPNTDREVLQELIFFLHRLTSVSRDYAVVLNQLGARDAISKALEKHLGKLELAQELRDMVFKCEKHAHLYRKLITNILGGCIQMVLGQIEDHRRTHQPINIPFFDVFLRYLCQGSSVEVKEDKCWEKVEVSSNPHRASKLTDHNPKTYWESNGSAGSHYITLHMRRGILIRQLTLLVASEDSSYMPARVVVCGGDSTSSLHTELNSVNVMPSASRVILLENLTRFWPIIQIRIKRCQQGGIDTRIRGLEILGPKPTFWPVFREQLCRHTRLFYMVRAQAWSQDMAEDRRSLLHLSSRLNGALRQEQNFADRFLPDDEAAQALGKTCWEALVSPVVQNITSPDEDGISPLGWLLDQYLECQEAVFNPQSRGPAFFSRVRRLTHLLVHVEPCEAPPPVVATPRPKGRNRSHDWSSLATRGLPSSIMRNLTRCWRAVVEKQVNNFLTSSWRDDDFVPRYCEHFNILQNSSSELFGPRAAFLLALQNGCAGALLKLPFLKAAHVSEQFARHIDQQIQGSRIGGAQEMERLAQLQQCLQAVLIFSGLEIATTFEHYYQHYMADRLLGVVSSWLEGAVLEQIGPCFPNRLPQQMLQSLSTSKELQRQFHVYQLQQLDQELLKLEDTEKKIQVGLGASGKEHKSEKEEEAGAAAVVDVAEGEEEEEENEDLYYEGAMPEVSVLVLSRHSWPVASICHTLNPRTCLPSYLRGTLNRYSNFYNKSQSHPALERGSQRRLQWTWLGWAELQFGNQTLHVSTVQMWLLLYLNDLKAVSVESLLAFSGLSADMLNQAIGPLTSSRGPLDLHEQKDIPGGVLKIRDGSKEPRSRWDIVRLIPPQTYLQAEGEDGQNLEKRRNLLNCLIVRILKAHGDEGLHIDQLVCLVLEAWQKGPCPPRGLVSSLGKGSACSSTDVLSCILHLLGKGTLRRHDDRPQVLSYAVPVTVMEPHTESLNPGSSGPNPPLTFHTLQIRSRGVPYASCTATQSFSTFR
UniProt Q9UBX1: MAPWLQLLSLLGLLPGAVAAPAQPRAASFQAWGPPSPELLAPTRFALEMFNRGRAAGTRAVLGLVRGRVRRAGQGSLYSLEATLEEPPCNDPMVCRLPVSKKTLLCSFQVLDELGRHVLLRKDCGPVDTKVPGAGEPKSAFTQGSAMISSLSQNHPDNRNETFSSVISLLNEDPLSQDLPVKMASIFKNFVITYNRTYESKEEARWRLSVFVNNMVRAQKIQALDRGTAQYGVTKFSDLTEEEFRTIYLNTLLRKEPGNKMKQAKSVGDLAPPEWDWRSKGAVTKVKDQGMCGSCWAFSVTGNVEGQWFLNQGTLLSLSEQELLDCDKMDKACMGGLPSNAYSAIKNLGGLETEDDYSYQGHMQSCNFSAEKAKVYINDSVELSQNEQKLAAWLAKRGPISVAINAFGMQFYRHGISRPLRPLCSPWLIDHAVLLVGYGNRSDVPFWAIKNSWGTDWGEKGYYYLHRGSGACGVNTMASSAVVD
UniProt Q8WV16: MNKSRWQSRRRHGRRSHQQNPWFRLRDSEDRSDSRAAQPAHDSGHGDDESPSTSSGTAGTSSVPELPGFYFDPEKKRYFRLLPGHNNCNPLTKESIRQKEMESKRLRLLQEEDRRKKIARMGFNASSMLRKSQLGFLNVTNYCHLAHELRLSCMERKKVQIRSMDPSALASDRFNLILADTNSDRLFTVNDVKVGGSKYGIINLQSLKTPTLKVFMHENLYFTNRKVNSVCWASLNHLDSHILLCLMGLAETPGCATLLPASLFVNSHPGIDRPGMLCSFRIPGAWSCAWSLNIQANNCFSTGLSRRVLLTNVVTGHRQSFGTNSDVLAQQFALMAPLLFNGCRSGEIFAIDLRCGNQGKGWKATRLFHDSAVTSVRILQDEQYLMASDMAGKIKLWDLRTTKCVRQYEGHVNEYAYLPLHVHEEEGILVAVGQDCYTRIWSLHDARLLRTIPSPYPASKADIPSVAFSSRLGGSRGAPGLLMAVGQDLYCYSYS
UniProt Q9GZU7: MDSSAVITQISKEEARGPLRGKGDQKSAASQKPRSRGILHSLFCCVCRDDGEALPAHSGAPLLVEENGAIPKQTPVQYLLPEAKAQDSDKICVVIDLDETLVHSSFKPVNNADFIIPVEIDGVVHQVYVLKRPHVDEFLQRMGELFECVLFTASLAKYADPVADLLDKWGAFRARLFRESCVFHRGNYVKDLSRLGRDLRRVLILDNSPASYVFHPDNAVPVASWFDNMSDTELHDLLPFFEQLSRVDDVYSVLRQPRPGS
UniProt Q9Y6A2: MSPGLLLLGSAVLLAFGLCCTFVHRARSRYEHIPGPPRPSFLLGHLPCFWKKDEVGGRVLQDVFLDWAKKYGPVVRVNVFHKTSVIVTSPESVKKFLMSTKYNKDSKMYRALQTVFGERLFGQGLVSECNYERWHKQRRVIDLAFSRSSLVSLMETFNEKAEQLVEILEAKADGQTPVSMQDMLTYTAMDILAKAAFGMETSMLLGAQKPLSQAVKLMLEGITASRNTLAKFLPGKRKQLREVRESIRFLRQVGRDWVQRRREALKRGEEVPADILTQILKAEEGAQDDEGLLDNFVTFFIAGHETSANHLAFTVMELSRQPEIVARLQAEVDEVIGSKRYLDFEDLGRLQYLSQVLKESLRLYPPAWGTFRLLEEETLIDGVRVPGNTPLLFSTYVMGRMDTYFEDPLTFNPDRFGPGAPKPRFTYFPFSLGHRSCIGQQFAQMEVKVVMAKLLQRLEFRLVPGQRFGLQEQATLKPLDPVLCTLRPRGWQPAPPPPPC
UniProt Q9NXE8: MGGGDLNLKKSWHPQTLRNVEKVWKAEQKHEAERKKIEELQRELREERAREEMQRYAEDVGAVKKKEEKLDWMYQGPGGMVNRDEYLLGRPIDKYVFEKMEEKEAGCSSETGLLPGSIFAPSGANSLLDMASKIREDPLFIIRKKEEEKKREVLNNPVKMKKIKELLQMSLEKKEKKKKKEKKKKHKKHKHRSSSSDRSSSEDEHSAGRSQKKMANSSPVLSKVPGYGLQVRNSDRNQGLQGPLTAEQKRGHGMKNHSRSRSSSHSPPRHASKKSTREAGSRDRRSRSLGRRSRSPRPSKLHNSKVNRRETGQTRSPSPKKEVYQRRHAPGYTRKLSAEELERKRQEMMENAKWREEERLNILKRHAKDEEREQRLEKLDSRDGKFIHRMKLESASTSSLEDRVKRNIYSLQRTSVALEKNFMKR

Compound: CN1CCC(CNc2ccc3ncc(-c4cccc(OC(F)(F)F)c4)n3n2)CC1
Experiment: log2 fold change, soluble protein after heating vs DMSO (PISA); higher = thermal stabilisation; K562 cells, 10 uM, 30 min; active = over 0.2 and 3.5 SD of the protein, either way, in both replicates (recomputed)
How it was run: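 K562 cells at 2×10^6 cells/mL were treated for 30 min with 10 μM compound, and aliquots were heated for 3 min over 48°C-58°C before pooling. Extraction used PBS with 0.5% NP-40 at 4°C, and soluble protein was the supernatant after 21,000xg for 90 min, measured by TMTpro 16plex LC-MS/MS with channel sums equalised. Thermal stability values, relative to control samples and from duplicates, are log2 fold changes.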

Target | log2 fold change
CYP2S1 isoform 2 (UniProt Q96SQ9) | inactive: 0.088
CYREN (UniProt Q9BWK5) | inactive: 0.046
DCUN1D5 (UniProt Q9BTE7) | inactive: 0.04
CYP4V2 (UniProt Q6ZWL3) | inactive: -0.175
CXorf40B (UniProt Q96DE9) | inactive: -0.03
CTDNEP1 (UniProt O95476) | inactive: 0.168
CTNNBIP1 (UniProt Q9NSA3) | inactive: 0.113
CTSS (UniProt P25774) | inactive: -0.034
DCAF12 (UniProt Q5T6F0) | inactive: 0.197
CTDSPL2 (UniProt Q05D32) | inactive: -0.052
CUL7 isoform 2 (UniProt Q14999) | inactive: 0.079
CTSF (UniProt Q9UBX1) | inactive: 0.044
DCAF4 (UniProt Q8WV16) | inactive: -0.086
CTDSP1 (UniProt Q9GZU7) | inactive: 0.075
CXXC1 isoform 2 (UniProt Q9P0U4) | inactive: -0.091
CYP46A1 (UniProt Q9Y6A2) | inactive: -0.236
CYREN isoform 4 (UniProt Q9BWK5) | inactive: 0.094
CWC25 (UniProt Q9NXE8) | inactive: 0.235

Reprinted at random: two entries already listed, in no set order.
Target | log2 fold change
CXXC1 isoform 2 (UniProt Q9P0U4) | inactive: -0.091
CYP46A1 (UniProt Q9Y6A2) | inactive: -0.236
